Experimental data reported in patent US8969004B2, “Detection of immobilized nucleic acid” (Life Technologies Corporation, priority 2004, dated 2015).
For part of these data: At least one structure is not confirmed: it was looked up by name or label, or the drawing left a doubt. Some of these results come from one statement about several compounds together.

Key:
[1] = tested on: Salmonella typhimurium histidine auxotrophs TA97a, TA98, TA100, TA102, TA1535, TA1537 and TA1538; test: Salmonella/Mammalian Microsomal Reverse Mutation Assay (Ames Test); assay type: cell-based
Method: The Ames assay was performed using the method described by Ames (Ames et al Mutation Research 31 (1975) 347-364; Levin et al. PNAS 79 (1982) 7445-7449; Maron and Ames, Mutation Research 113 (1983) 173-215). Tester stains used were Salmonella typhimurium histidine auxotrophs TA97a, TA98, TA100, TA102, TA1535, TA1537 and TA1538. […] The test compounds, test vehicle and S9 (when appropriate) were combined with molten agar and then overlaid over a minimal agar plate. Following incubation at 37° C., revertant colonies were counted. When S9 was not used, 100 μl of tester strain and 50 μl of control or test compound were added to 2.5 ml of selective top agar. When S9 was used, 500 μl of S9 mix, 100 μl of tester strain and 50 μl of control or test compound was added to 2.0 ml of selective top agar. The top agar was then overlaid onto the surface of 25 ml of minimal bottom agar contained in a 15×100 mm Petri dish. The inverted plates were incubated for 52±4 hr at 37±2° C.
The number of revertants was counted and the test compounds were either considered non-mutagenic or mutagenic. The criteria for determining if a test compound was mutagenic was based on a 2-fold increase in mean revertants per plate for at least one tester strain (TA97a, TA98, TA100 and TA102) over the mean revertants per plate of the appropriate vehicle control. […]

[2] = tested on: double stranded regions of nucleic acid; conditions: J. B. LePecq Anal. Biochem. 17 (1966); cited from earlier work

For CCC[n+]1ccc(/C=C2\Sc3ccccc3N2C)c2ccccc21 [Compound 1], the “increase in revertants, span over four of the tester strains” value ([1]; in the presence of S9, four of the tester strains) was 3-4 fold.

With CN1/C(=C/c2cc[n+](C)c3ccccc23)Sc2ccccc21 [Thiazole orange, thiazole orange] the “times less mutagenic compared to ethidium bromide” value ([1]; Ames test) was 3-4 times.

In the case of CC[n+]1c(-c2ccccc2)c2cc(N)ccc2c2ccc(N)cc21 [Ethidium bromide, ethidium bromide], the “increase in fluorescence upon intercalating into double stranded regions of nucleic acid” value [2] is given as 20-25 fold.
